Some of the results follow.
Tests used:
Assay in all cases: log2 fold change, soluble protein after heating vs DMSO (PISA); higher = thermal stabilisation; K562 cells, 10 uM, 30 min; active = over 0.2 and 3.5 SD of the protein, either way, in both replicates (recomputed)
[1] = compound: CC1=C(C=C(C=C1)NC(=O)C2=CC(=CC=C2)C(C)(C)C#N)NC3=CC4=C(C=C3)N=CN(C4=O)C
Summary of the method: (§1)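 Soluble protein was defined as the supernatant after 21,000xg for 90 min. It came from K562 cells at 2×10^6 cells/mL given 10 μM compound for 30 min, heated in aliquots for 3 min across 48°C-58°C, pooled, and extracted in PBS with 0.5% NP-40 at 4°C, and was quantified by TMTpro 16plex LC-MS/MS with equalised channel sums. Thermal stability against control samples, from duplicates, is reported as log2 fold change.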

Sequences of proteins named here, by UniProt entry; tags and fusion partners are left off. A change or cut given only in a name is not applied to a line headed by its entry.
UniProt O43837: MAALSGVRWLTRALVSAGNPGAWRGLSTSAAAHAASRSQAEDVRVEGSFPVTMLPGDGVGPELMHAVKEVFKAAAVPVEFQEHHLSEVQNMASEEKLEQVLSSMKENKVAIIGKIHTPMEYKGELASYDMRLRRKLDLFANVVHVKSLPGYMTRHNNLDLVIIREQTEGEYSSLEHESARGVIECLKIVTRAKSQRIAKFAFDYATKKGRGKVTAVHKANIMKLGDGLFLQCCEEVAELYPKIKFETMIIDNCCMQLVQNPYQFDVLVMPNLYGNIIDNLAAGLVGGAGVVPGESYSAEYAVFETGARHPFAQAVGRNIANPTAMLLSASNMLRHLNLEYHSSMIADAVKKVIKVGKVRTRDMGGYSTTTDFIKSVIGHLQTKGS
UniProt Q13576: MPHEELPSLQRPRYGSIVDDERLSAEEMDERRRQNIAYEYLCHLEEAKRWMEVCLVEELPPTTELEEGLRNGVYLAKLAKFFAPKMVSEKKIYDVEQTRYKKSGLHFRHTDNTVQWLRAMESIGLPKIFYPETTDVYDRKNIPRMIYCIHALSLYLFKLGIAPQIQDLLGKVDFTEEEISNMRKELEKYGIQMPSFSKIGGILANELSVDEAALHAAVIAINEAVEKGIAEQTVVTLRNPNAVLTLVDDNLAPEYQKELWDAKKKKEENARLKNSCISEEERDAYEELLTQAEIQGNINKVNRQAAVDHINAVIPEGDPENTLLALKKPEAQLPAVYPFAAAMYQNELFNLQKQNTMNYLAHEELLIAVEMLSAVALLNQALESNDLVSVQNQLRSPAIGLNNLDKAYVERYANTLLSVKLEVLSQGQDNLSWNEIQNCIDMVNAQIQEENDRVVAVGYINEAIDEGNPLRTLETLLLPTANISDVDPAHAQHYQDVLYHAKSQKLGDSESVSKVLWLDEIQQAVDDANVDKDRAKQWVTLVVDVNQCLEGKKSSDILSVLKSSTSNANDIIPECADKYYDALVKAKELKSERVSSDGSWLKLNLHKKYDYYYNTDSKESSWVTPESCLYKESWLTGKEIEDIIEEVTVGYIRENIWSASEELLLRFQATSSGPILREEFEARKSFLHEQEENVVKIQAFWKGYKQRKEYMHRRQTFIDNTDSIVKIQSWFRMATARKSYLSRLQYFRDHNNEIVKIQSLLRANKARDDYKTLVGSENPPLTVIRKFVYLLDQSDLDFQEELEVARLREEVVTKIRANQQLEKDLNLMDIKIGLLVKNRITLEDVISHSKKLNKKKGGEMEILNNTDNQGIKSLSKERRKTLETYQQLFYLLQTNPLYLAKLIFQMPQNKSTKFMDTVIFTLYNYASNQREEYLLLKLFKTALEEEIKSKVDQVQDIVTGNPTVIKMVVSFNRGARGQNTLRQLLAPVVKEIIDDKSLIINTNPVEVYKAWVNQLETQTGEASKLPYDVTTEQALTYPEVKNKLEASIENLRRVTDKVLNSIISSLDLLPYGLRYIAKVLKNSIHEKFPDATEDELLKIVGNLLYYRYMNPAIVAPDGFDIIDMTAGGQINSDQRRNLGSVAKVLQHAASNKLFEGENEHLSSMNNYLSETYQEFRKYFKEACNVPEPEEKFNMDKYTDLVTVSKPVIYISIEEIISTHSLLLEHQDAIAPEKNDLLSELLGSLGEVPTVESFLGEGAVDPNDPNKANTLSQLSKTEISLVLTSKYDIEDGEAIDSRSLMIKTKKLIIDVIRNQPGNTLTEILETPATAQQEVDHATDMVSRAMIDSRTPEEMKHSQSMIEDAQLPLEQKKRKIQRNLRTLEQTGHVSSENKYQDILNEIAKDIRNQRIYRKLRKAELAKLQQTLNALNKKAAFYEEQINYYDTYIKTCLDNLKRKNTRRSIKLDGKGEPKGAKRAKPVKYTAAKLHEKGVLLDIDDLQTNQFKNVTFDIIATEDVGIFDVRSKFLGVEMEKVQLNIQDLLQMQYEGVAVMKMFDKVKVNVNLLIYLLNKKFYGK
UniProt Q9H1K1: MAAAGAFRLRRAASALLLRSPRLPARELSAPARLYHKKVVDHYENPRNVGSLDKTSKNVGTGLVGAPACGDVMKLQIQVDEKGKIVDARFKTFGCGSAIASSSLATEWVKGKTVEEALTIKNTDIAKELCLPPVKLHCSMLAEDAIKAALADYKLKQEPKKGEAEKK
UniProt Q70UQ0: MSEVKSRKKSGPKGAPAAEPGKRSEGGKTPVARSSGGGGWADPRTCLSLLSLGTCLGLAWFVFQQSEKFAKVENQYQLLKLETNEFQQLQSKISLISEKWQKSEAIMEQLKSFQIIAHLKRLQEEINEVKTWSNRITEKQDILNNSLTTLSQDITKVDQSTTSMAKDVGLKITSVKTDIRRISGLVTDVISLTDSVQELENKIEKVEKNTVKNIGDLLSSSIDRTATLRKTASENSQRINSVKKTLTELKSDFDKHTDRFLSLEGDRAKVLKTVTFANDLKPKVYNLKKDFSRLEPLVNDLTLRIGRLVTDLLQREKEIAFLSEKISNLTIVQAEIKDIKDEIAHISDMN
UniProt P18084: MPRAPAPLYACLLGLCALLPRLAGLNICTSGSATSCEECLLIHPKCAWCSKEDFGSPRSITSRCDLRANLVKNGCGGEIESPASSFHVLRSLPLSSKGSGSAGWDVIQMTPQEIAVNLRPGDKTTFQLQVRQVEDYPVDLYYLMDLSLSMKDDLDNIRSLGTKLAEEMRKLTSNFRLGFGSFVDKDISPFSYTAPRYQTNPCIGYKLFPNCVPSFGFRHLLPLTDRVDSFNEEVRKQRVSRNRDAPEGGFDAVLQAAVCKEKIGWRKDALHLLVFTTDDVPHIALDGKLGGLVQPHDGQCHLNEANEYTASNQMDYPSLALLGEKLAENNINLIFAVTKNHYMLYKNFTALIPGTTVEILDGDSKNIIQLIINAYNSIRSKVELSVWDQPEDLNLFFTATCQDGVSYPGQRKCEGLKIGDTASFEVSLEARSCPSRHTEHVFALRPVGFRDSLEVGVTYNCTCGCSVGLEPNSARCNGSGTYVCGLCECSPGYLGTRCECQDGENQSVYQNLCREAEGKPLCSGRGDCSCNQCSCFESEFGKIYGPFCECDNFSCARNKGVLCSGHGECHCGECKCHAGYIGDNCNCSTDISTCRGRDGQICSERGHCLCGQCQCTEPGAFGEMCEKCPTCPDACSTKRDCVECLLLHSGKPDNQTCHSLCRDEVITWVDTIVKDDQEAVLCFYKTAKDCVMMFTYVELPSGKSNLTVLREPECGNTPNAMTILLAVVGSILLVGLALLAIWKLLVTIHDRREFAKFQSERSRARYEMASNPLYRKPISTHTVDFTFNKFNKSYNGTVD
UniProt Q8TEX9: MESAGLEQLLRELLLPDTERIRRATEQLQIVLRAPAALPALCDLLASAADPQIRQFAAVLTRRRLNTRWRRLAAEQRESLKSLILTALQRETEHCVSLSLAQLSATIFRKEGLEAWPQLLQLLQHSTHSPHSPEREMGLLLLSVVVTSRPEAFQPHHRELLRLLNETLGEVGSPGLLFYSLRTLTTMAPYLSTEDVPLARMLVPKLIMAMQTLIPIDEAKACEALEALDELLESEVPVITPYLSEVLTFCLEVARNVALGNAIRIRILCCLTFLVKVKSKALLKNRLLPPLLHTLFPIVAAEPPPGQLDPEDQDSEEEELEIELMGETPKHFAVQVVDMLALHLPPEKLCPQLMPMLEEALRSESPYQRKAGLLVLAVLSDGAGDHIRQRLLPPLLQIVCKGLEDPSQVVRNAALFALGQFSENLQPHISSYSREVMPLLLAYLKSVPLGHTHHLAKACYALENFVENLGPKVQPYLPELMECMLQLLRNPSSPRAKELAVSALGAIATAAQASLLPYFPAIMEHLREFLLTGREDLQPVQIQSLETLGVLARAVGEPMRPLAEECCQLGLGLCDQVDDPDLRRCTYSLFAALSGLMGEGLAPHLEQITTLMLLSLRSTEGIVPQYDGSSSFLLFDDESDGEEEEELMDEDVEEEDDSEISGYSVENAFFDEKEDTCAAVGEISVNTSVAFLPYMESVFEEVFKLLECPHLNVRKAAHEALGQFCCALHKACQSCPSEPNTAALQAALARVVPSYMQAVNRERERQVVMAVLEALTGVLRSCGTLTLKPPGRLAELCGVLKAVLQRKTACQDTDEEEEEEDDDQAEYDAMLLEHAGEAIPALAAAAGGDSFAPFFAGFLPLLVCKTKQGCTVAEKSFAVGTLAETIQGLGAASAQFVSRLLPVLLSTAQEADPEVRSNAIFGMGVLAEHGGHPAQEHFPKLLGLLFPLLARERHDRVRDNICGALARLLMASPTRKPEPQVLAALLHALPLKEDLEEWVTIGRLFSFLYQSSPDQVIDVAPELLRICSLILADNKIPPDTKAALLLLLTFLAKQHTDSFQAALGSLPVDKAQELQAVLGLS
UniProt P08648, whole entry, looked up: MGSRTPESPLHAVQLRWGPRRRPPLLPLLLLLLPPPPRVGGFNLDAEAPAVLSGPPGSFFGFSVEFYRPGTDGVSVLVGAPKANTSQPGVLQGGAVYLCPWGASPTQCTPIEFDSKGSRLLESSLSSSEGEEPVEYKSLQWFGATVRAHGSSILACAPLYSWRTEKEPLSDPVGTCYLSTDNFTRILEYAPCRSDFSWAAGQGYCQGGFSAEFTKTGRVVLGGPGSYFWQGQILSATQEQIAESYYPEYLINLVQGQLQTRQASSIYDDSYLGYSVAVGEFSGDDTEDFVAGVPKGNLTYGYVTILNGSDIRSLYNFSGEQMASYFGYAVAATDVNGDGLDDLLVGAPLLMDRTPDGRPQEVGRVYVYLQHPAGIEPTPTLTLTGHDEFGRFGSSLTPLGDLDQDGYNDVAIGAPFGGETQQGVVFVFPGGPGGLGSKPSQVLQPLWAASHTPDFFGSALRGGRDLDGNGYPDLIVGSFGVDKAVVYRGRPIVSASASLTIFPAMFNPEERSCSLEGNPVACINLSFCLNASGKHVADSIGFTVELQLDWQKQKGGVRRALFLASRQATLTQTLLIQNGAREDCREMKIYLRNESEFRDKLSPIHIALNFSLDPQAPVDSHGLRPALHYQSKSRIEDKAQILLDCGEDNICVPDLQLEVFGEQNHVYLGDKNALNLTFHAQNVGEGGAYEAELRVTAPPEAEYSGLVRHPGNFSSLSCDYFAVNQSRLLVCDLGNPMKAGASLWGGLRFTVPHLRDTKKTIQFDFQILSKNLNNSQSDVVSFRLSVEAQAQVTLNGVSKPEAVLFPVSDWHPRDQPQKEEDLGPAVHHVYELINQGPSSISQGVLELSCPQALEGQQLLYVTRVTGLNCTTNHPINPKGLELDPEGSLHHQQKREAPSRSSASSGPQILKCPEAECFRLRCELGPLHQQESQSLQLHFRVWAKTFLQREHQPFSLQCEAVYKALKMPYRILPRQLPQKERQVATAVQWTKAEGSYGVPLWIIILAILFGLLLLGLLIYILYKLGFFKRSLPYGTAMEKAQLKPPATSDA
UniProt Q9NPH2: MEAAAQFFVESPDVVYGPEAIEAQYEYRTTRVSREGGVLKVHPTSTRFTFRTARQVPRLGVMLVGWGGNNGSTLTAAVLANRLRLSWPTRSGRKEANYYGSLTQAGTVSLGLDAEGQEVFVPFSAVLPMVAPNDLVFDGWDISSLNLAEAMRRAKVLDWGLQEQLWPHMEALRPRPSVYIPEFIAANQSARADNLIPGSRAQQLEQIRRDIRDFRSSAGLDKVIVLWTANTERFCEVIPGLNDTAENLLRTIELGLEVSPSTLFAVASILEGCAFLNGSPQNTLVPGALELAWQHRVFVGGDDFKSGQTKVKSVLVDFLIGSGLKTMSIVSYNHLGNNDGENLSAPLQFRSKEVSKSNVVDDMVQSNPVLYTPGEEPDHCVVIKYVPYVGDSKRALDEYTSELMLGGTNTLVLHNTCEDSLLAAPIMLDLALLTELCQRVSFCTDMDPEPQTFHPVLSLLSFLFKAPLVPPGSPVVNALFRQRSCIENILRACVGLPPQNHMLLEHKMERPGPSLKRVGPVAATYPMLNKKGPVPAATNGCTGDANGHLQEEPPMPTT
UniProt P20839, whole entry, looked up: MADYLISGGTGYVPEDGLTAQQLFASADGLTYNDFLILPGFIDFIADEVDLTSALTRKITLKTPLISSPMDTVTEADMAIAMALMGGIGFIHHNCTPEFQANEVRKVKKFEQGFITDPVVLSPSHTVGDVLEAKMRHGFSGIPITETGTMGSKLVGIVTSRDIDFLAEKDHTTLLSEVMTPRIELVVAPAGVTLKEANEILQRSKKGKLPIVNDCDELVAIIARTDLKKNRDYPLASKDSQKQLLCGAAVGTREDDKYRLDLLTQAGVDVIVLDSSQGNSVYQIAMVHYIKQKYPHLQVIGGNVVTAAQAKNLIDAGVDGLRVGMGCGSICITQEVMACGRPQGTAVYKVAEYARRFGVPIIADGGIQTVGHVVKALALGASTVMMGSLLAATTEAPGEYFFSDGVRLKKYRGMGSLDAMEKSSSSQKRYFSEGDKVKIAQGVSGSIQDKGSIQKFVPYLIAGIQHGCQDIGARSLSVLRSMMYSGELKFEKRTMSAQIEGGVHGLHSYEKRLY

[2] = compound: CC1=C(C=C(C=C1)NC(=O)C2=CC(=CC=C2)N(C)C)NC(=O)C3=CC=C(C=C3)O
Summary of the method: as §1

[3] = compound: CC1=CC=C(C=C1)SC2=C3C=C(SC3=CN=C2)C(=O)N
Summary of the method: as §1

[4] = compound: CC1=NC(=CC=C1)C2=C(N=C(N2)C(C)(C)C)C3=CC4=NC=CN=C4C=C3
Summary of the method: as §1

[5] = compound: CCCCN(Cc1ccc(C(=O)NO)cc1)C(=O)Nc1ccccc1 [Nexturastat A]
Summary of the method: as §1

[6] = compound: CCCS(=O)(=O)Nc1ccc(F)c(C(=O)c2c[nH]c3ncc(-c4ccc(Cl)cc4)cc23)c1F [vemurafenib]
Summary of the method: as §1

[7] = compound: CCCS(=O)(=O)Nc1ccc(F)c(C(=O)c2c[nH]c3ncc(Cl)cc23)c1F
Summary of the method: as §1

[8] = compound: CCCc1cc(C)[nH]c(=O)c1CNC(=O)c1cc(-c2ccnc(N3CCN(C)CC3)c2)cc2c1cnn2C(C)C
Summary of the method: as §1

[9] = compound: CCN(CC)Cc1ccc2cc(COC(=O)Nc3ccc(C(=O)NO)cc3)ccc2c1 [givinostat]
Summary of the method: as §1

[10] = compound: CCN(CCCOc1ccc2c(Nc3cc(CC(=O)Nc4cccc(F)c4)[nH]n3)ncnc2c1)CCOP(=O)(O)O [barasertib]
Summary of the method: as §1

[11] = compound: CC[C@@H]1C(=O)N(C)c2cnc(Nc3ccc(C(=O)NC4CCN(C)CC4)cc3OC)nc2N1C1CCCC1
Summary of the method: as §1

[12] = compound: CC[C@@H]1C(=O)N(C)c2cnc(Nc3ccc(C(=O)N[C@H]4CC[C@H](N5CCN(CC6CC6)CC5)CC4)cc3OC)nc2N1C(C)C [volasertib]
Summary of the method: as §1

[13] = compound: CC[C@H](C)N1C=C(C2=C(C=C(C=C21)C3=CN=C(C=C3)N4CCNCC4)C(=O)NCC5=C(C=C(NC5=O)C)C)C
Summary of the method: as §1

[14] = compound: CC[C@H](C)[C@@H](C(=O)N[C@@H]([C@@H](C)O)C(=O)N[C@@H](CC(C)C)C(=O)[C@]1(CO1)C)NC(=O)[C@H]([C@@H](C)CC)N(C)C(=O)C [epoxomicin]
Summary of the method: as §1

[15] = compound: CCn1c(C(=O)N(C2CC2)C2CC2)cc2c3c(ncn3C)c(Nc3cc(C)n(C)n3)nc21
Summary of the method: as §1

[16] = compound: CCn1cc(-c2ccnc3[nH]c(-c4cccc(CN(C)C)c4)cc23)c(-c2ccc(NC(=O)N(C)C)cc2)n1
Summary of the method: as §1

[17] = compound: CN(C)CC(=O)Nc1ccc2[nH]c(=O)c3ccccc3c2c1
Summary of the method: as §1

[18] = compound: CN(CCOC1=CC=C(C=C1)C[C@H]2C(=O)NC(=O)S2)C3=CC=CC=N3 (racemic) [rosiglitazone]
Summary of the method: as §1

[19] = compound: CN1C2=C(C3=C1C(=O)N(N=C3)CC4=CC(=CC=C4)N)SC(=C2)S(=O)C
Summary of the method: as §1

[20] = compound: CN1CCC(CNc2ccc3ncc(-c4cccc(OC(F)(F)F)c4)n3n2)CC1
Summary of the method: as §1

Measured: log2 fold change

IFI35 isoform 2 (UniProt P80217)
inactive: [1] 0.001 | [2] -0.022 | [3] 0 | [4] 0.029 | [5] -0.041 | [6] -0.017 | [7] 0.008 | [8] -0.046 | [9] -0.022 | [10] 0.011 | [11] 0 | [12] 0.044 | [13] -0.014 | [14] 0.048 | [15] 0.002 | [16] -0.017 | [17] 0.025 | [18] 0.027 | [19] -0.057 | [20] 0.049

IDH3B (UniProt O43837)
inactive: [1] 0.027 | [2] -0.056 | [3] 0.067 | [4] 0.014 | [5] -0.042 | [6] 0.016 | [7] 0.073 | [8] -0.086 | [9] 0.024 | [10] 0.008 | [11] 0.002 | [12] 0.008 | [13] 0.005 | [14] 0.054 | [15] -0.019 | [16] -0.071 | [17] 0.001 | [18] 0.044 | [19] -0.063 | [20] -0.025

IQGAP2 (UniProt Q13576)
inactive: [1] 0.048 | [2] -0.053 | [3] 0.13 | [4] -0.022 | [5] 0.198 | [6] 0.043 | [7] 0.097 | [8] 0.081 | [9] 0.178 | [10] 0.112 | [11] -0.028 | [12] -0.582 | [13] 0.164 | [14] 0.009 | [15] -0.168 | [16] -0.13 | [17] 0.078 | [18] 0.032 | [19] 0.093 | [20] -0.205

IMPAD1 (UniProt Q9NX62)
inactive: [1] -0.081 | [2] 0.005 | [3] 0.042 | [4] 0.036 | [5] -0.024 | [6] 0.024 | [7] 0.008 | [8] 0.023 | [9] -0.055 | [10] -0.017 | [11] 0.029 | [12] -0.039 | [13] -0.025 | [14] -0.032 | [15] 0.025 | [16] 0.016 | [17] 0.213 | [18] 0.022 | [19] -0.029 | [20] 0.04

ISCU (UniProt Q9H1K1)
inactive: [1] -0.022 | [2] 0.011 | [3] -0.002 | [4] 0.003 | [5] -0.049 | [6] -0.039 | [7] -0.066 | [8] -0.069 | [9] -0.097 | [10] 0.016 | [11] 0.038 | [12] 0.121 | [13] 0 | [14] -0.053 | [15] 0.011 | [16] 0 | [17] -0.042 | [18] 0.292 | [19] -0.066 | [20] 0.052

IKBIP isoform 4 (UniProt Q70UQ0)
inactive: [1] -0.059 | [2] 0.001 | [3] -0.021 | [4] -0.021 | [5] 0.021 | [6] -0.008 | [7] -0.026 | [8] 0.006 | [9] -0.074 | [10] 0.001 | [11] 0.022 | [12] -0.022 | [13] -0.019 | [14] -0.002 | [15] 0.022 | [16] 0.017 | [17] -0.047 | [18] 0 | [19] 0.013 | [20] 0.052

IGF2BP1 (UniProt Q9NZI8)
inactive: [1] 0.093 | [2] 0.031 | [3] -0.052 | [4] -0.107 | [5] 0.385 | [6] -0.017 | [7] 0.082 | [8] 0.167 | [9] 0.168 | [10] -0.04 | [11] 0.078 | [12] -0.515 | [13] 0.044 | [14] -0.345 | [15] 0.057 | [16] 0.193 | [17] -0.046 | [18] -0.1 | [19] 0.381 | [20] -0.107

ITGB5 (UniProt P18084)
inactive: [1] -0.067 | [2] -0.025 | [3] -0.01 | [4] 0.006 | [5] -0.001 | [6] 0.004 | [7] -0.004 | [8] 0.003 | [9] 0 | [10] -0.007 | [11] 0.022 | [12] -0.072 | [13] -0.039 | [14] 0.03 | [15] -0.003 | [16] -0.112 | [17] 0.111 | [18] -0.036 | [19] 0.007 | [20] 0.102

IPO4 isoform 2 (UniProt Q8TEX9)
inactive: [1] 0.014 | [2] 0.007 | [3] 0.044 | [4] 0.03 | [5] 0.196 | [6] 0.016 | [7] 0.11 | [8] 0.087 | [9] 0.029 | [10] 0.066 | [11] -0.098 | [12] -0.401 | [13] 0.032 | [14] 0.055 | [15] -0.007 | [16] 0.039 | [17] 0.12 | [18] 0.025 | [19] 0.148 | [20] -0.152

IMMP2L (UniProt Q96T52)
inactive: [1] -0.069 | [2] -0.007 | [3] 0 | [4] 0.015 | [5] -0.07 | [6] -0.028 | [7] -0.005 | [8] -0.012 | [9] 0.069 | [10] 0 | [11] -0.07 | [12] 0.014 | [13] -0.001 | [14] -0.018 | [15] -0.01 | [16] 0.065 | [17] -0.025 | [18] 0.004 | [19] -0.01 | [20] -0.169

IKBKG isoform 2 (UniProt Q9Y6K9)
inactive: [1] -0.006 | [2] 0.026 | [3] -0.008 | [4] -0.011 | [5] -0.019 | [6] -0.013 | [7] -0.051 | [8] 0.008 | [9] 0.004 | [10] -0.017 | [11] 0.039 | [12] 0.059 | [13] -0.062 | [14] 0.015 | [15] -0.012 | [16] 0 | [17] -0.053 | [18] 0.015 | [19] 0.016 | [20] 0.068

IRF2BP2 (UniProt Q7Z5L9)
inactive: [1] 0.001 | [2] 0.005 | [3] 0.017 | [4] 0.081 | [5] 0.022 | [6] 0.063 | [7] 0.006 | [8] -0.034 | [9] 0.063 | [10] 0.002 | [11] 0.007 | [12] -0.06 | [13] 0.037 | [14] 0.149 | [15] -0.007 | [16] -0.063 | [17] 0.032 | [18] 0.027 | [19] -0.008 | [20] 0.048

ITGA5 (UniProt P08648)
inactive: [1] -0.027 | [2] 0.007 | [3] 0.071 | [4] -0.004 | [5] 0.036 | [6] 0.046 | [7] 0.007 | [8] -0.011 | [9] -0.014 | [10] -0.004 | [11] 0.043 | [12] -0.039 | [13] -0.013 | [14] -0.019 | [15] 0.012 | [16] -0.045 | [17] -0.009 | [18] 0 | [19] -0.104 | [20] 0.175

ISYNA1 (UniProt Q9NPH2)
inactive: [1] 0.006 | [2] 0.011 | [3] 0.085 | [4] 0.051 | [5] -0.153 | [6] 0.031 | [7] -0.016 | [8] 0.016 | [9] -0.242 | [10] 0.027 | [11] -0.021 | [12] 0.02 | [13] 0.106 | [14] -0.025 | [15] -0.055 | [16] 0.049 | [17] 0.031 | [18] 0.018 | [19] -0.024 | [20] 0.003

IMPDH1 isoform 6 (UniProt P20839)
inactive: [1] -0.023 | [2] 0.008 | [3] -0.044 | [4] -0.044 | [5] 0.061 | [6] -0.047 | [7] -0.065 | [8] 0.032 | [9] 0.02 | [10] -0.059 | [11] 0.021 | [12] 0.185 | [13] -0.025 | [14] -0.031 | [15] -0.023 | [16] 0.092 | [17] -0.028 | [18] -0.054 | [19] 0.057 | [20] 0.022

INPPL1 (UniProt O15357)
inactive: [1] -0.089 | [2] -0.066 | [3] -0.034 | [4] 0.01 | [5] 0.157 | [6] -0.057 | [7] 0.021 | [8] 0.065 | [9] 0.172 | [10] 0.071 | [11] -0.002 | [12] -0.106 | [13] -0.027 | [14] -0.074 | [15] 0.065 | [16] -0.062 | [17] 0.182 | [18] 0.057 | [19] 0.128 | [20] 0.092

Random excerpt: two records from the list, in no set order.
ITGA5 (UniProt P08648)
inactive: [1] -0.027 | [2] 0.007 | [3] 0.071 | [4] -0.004 | [5] 0.036 | [6] 0.046 | [7] 0.007 | [8] -0.011 | [9] -0.014 | [10] -0.004 | [11] 0.043 | [12] -0.039 | [13] -0.013 | [14] -0.019 | [15] 0.012 | [16] -0.045 | [17] -0.009 | [18] 0 | [19] -0.104 | [20] 0.175

INPPL1 (UniProt O15357)
inactive: [1] -0.089 | [2] -0.066 | [3] -0.034 | [4] 0.01 | [5] 0.157 | [6] -0.057 | [7] 0.021 | [8] 0.065 | [9] 0.172 | [10] 0.071 | [11] -0.002 | [12] -0.106 | [13] -0.027 | [14] -0.074 | [15] 0.065 | [16] -0.062 | [17] 0.182 | [18] 0.057 | [19] 0.128 | [20] 0.092

Source: the supplement of paper PMC10849652
